Measurements reported in PubChem BioAssay AID1159584 (Peter MacCallum Cancer Centre, 2016)
The whole screen tested about 18,000 reagents; below is a part drawn at random. Not all columns of the deposit are shown. The record does not give: the amount of reagent, the time to read-out.

Screen: 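Genes that CDH1-null MCF10A cells selectively depend on to survive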 (primary screen)
System: human MCF10A breast epithelial cells, parental and CDH1-null
Reagent: siRNA against human genes
Detection: 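Cell viability by CellTiter-Glo ATP luminescence, each line scaled to the mean of mock wells across plates, then CDH1-null over parental ratio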
Reading the numbers: CDH1-null / parental viability ratio: higher = CDH1-null cells survive relatively better than parental

BABAM2 (GeneID 9577)
- CDH1-null / parental viability ratio: 1.36

PURA (GeneID 5813)
- CDH1-null / parental viability ratio: 0.91

CDR1 (GeneID 1038)
- CDH1-null / parental viability ratio: 1.07

VDAC2 (GeneID 7417)
- CDH1-null / parental viability ratio: 1.3

NFIC (GeneID 4782)
- CDH1-null / parental viability ratio: 0.65

FIGNL2 (GeneID 401720)
- CDH1-null / parental viability ratio: 1.09

TMEM9 (GeneID 252839)
- CDH1-null / parental viability ratio: 1

UIMC1 (GeneID 51720)
- CDH1-null / parental viability ratio: 0.58

Laid out differently: 2 of the entries above
target gene	CDH1-null / parental viability ratio
CDR1 (GeneID 1038)	1.07
VDAC2 (GeneID 7417)	1.3

The list goes on.
LDHAL6A (GeneID 160287)
- CDH1-null / parental viability ratio: 1.17

ARMC10 (GeneID 83787)
- CDH1-null / parental viability ratio: 0.95

CHAF1A (GeneID 10036)
- CDH1-null / parental viability ratio: 0.95

PMS2 (GeneID 5395)
- CDH1-null / parental viability ratio: 0.88

RSPH10B (GeneID 222967)
- CDH1-null / parental viability ratio: 1.34

USP1 (GeneID 7398)
- CDH1-null / parental viability ratio: 1.11
